These results are taken from PMC6331586, “Rapid determination of quaternary protein structures in complex biological samples” (Nature Communications, 2019).

By UniProt entry, the sequences of proteins in these tests, tags left out. Residues count along the entry.
UniProt P01009, residues 25-418: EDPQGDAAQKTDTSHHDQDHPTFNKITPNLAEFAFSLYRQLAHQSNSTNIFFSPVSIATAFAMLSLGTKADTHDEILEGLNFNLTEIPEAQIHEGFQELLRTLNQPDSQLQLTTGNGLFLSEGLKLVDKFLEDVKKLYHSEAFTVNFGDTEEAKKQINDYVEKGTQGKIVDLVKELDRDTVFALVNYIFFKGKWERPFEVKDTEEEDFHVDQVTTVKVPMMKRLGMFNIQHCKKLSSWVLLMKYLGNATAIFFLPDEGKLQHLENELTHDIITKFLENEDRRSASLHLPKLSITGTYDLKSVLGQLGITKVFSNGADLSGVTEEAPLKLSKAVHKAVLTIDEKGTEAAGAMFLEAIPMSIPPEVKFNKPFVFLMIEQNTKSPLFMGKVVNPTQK
UniProt P02768, residues 25-609: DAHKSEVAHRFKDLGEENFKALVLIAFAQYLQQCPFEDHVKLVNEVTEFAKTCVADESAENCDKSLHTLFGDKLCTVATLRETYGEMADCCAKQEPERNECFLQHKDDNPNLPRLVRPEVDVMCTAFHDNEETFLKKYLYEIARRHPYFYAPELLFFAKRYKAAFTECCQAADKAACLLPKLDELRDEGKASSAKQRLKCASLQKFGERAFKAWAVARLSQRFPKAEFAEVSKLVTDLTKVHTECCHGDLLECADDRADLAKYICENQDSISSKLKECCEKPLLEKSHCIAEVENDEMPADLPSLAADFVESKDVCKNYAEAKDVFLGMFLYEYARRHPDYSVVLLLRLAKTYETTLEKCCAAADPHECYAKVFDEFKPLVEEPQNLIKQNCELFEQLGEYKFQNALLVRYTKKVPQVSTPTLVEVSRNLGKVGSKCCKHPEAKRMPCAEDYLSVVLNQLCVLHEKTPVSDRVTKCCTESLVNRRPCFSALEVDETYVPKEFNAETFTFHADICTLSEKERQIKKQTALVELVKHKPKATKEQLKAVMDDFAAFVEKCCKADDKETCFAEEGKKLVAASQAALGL

Results are given in words; binding and its absence hold for the method and conditions named. Binding seen in cells or lysates may run through a third protein. A result given as binding can be weak or reduced; the word gives no strength.

The assay deals with M1 protein on the surface of live S. pyogenes strain SF370 (S. pyogenes strain SF370 (endogenous)) (UniProt Q99XV0). The experiment in a line: cross-linking.

For the substance “alpha-1-antitrypsin (from UniProt P01009 25-418)”, the binding result was “no binding”.
The entry for “human serum albumin (from UniProt P02768 25-609)” is “binds”.
